PubChem BioAssay AID1053208 – Peter MacCallum Cancer Centre – 2014
The whole screen tested about 17,000 reagents; below is a random part of them. Of all reagents, 788 (4.7%) got an active call. 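Calls rest on z-score classes alone; an extra cut-off of viability at most 70% of control was not applied to them.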

- Test: 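Find knock-downs that sensitise mouse osteosarcoma cells to doxorubicin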 (primary screen)
- System: mouse osteosarcoma cells, early-passage culture from an engineered mouse model of fibroblastic bone tumour
- Reagents: siRNA pool against mouse genes, 40 nM
- Time to read-out: about 120 h (48 h before drug, then 72 h with drug)
- Conditions: doxorubicin 100 nM for 72 h, roughly 30-40% inhibitory dose
- Detection: 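Luminescent ATP signal taken as viability with or without 100 nM doxorubicin for 72 h; mean of two wells set against non-targeting siRNA and turned into robust z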
- Scale: viability z-score with doxorubicin and doxorubicin viability vs non-targeting: higher = more viable cells under doxorubicin; viability z-score without drug: higher = more viable cells with knock-down alone; z-score of drug to no-drug ratio: higher = less drug sensitisation by knock-down
- Hit rule: 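Called active if knock-down leaves viability unchanged without drug (z within -2 to 2) but lowers it with doxorubicin (z at or under -2)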

gene | combined z-score class | viability z-score with doxorubicin | viability z-score without drug | z-score of drug to no-drug ratio | doxorubicin viability vs non-targeting | call
B3gat1 | no change with or without drug | 0.56 | 0.51 | 0.34 | 0.99 | inactive
Egln1 | no change with or without drug | -1.01 | -0.17 | -0.9 | 0.85 | inactive
Krtap5-1 | low cell count with doxorubicin only | -2.47 | -0.51 | -2.25 | 0.72 | active
Stac3 | no change with or without drug | -1.35 | -1.35 | -0.45 | 0.82 | inactive
Max | no change with or without drug | 0 | -0.84 | 0.67 | 0.94 | inactive
Zfp958 | no change with or without drug | 1.69 | 1.18 | 1.01 | 1.09 | inactive
Atp1a3 | no change with or without drug | 0 | -0.51 | 0.45 | 0.94 | inactive
C130070B15Rik | no change with or without drug | -0.45 | 0 | -0.34 | 0.9 | inactive
Smu1 | low cell count with and without drug | -4.05 | -2.53 | -2.92 | 0.58 | inactive
Ermap | no change with or without drug | 1.35 | 0 | 1.57 | 1.06 | inactive
Rnaseh1 | no change with or without drug | -0.67 | 0 | -0.56 | 0.88 | inactive
Ipp | no change with or without drug | -0.22 | -1.01 | 0.56 | 0.92 | inactive
Syt10 | low cell count without drug only | -1.91 | -7.93 | 6.97 | 0.77 | inactive
Iws1 | high cell count with and without drug | 2.14 | 2.36 | 0.67 | 1.13 | inactive
Bcl9l | no change with or without drug | -1.12 | -1.52 | 0 | 0.84 | inactive
Rab3a | no change with or without drug | -0.11 | 1.69 | -1.01 | 0.93 | inactive
Ambra1 | no change with or without drug | -0.22 | 0.34 | -0.34 | 0.92 | inactive
Dusp2 | no change with or without drug | 0.9 | 0.84 | 0.45 | 1.02 | inactive
Zfp82 | no change with or without drug | 0.45 | 1.85 | -0.67 | 0.98 | inactive
Gabpa | low cell count with doxorubicin only | -3.15 | -1.18 | -2.59 | 0.66 | active
Csrnp1 | no change with or without drug | -0.9 | -1.01 | -0.11 | 0.86 | inactive
Prim1 | no change with or without drug | 0.9 | 1.18 | 0.22 | 1.02 | inactive
Fzd6 | no change with or without drug | 0.34 | 0.51 | 0.11 | 0.97 | inactive
Slc29a1 | high cell count without drug only | -0.45 | 2.7 | -1.91 | 0.9 | inactive
Ap1b1 | no change with or without drug | 0.67 | 0.17 | 0.67 | 1 | inactive

Laid out differently: 4 of the entries above.
| gene | combined z-score class | viability z-score with doxorubicin | viability z-score without drug | z-score of drug to no-drug ratio | doxorubicin viability vs non-targeting | call |
| --- | --- | --- | --- | --- | --- | --- |
| Smu1 | low cell count with and without drug | -4.05 | -2.53 | -2.92 | 0.58 | inactive |
| Ermap | no change with or without drug | 1.35 | 0 | 1.57 | 1.06 | inactive |
| Rnaseh1 | no change with or without drug | -0.67 | 0 | -0.56 | 0.88 | inactive |
| Ipp | no change with or without drug | -0.22 | -1.01 | 0.56 | 0.92 | inactive |

The listing continues.
gene | combined z-score class | viability z-score with doxorubicin | viability z-score without drug | z-score of drug to no-drug ratio | doxorubicin viability vs non-targeting | call
A530020G20Rik | no change with or without drug | -0.79 | -0.51 | -0.34 | 0.87 | inactive
Or1e23 | no change with or without drug | 0.22 | -0.51 | 0.67 | 0.96 | inactive
Ear1 | high cell count without drug only | -0.22 | 2.02 | -1.35 | 0.92 | inactive
Akr1c14 | no change with or without drug | -0.79 | -0.84 | -0.11 | 0.87 | inactive
Ccdc127 | no change with or without drug | 0.45 | 0.51 | 0.22 | 0.98 | inactive
Nphp3 | no change with or without drug | 0.34 | -0.17 | 0.56 | 0.97 | inactive
Syn1 | no change with or without drug | 1.35 | -0.34 | 1.8 | 1.06 | inactive
Nmi | no change with or without drug | -0.22 | -1.18 | 0.79 | 0.92 | inactive
Arhgef16 | no change with or without drug | 0.22 | 1.85 | -0.79 | 0.96 | inactive
Pomt1 | no change with or without drug | 0.9 | 1.35 | 0.11 | 1.02 | inactive
Ggps1 | no change with or without drug | 0.11 | 0 | 0.22 | 0.95 | inactive
Wdr45b | no change with or without drug | -0.45 | 0.17 | -0.45 | 0.9 | inactive
Foxk1 | no change with or without drug | 0.22 | -0.84 | 1.01 | 0.96 | inactive
Cntln | high cell count without drug only | -1.12 | 2.02 | -2.14 | 0.84 | inactive
Ciapin1 | no change with or without drug | 1.01 | 0.51 | 0.79 | 1.03 | inactive
Lman2 | no change with or without drug | -0.9 | 0.17 | -0.9 | 0.86 | inactive
Fam13c | low cell count with doxorubicin only | -2.92 | 0.17 | -3.04 | 0.68 | active
Pdk2 | no change with or without drug | 0.34 | -0.51 | 0.79 | 0.97 | inactive
Ublcp1 | no change with or without drug | 0.34 | 0.51 | 0.11 | 0.97 | inactive
Sprr1b | no change with or without drug | 0.56 | 0.51 | 0.34 | 0.99 | inactive
Mpp4 | low cell count with and without drug | -3.37 | -3.71 | -1.12 | 0.64 | inactive
Cmas | no change with or without drug | -1.12 | -0.17 | -1.01 | 0.84 | inactive
Add2 | no change with or without drug | 0.45 | 1.18 | -0.22 | 0.98 | inactive
Kat2b | no change with or without drug | 0.45 | 0.84 | 0 | 0.98 | inactive
Prdm1 | no change with or without drug | 0.9 | 1.35 | 0.11 | 1.02 | inactive
